Reference: PubChem BioAssay AID652259 (Drosophila RNAi Screening Center, 2013)
Purpose: 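Identify new Wingless signalling regulators in fly cells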 (primary screen). Cell system: Drosophila clone 8 imaginal disc epithelial cells. Reagent: long dsRNA against Drosophila genes. Challenge: pathway stimulated by co-transfected Wingless expression plasmid. Measured: 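Firefly luciferase from a tcf-site Wingless reporter, measured alongside co-transfected Renilla luciferase that tracks transfection; pathway stimulated by a Wingless plasmid; the firefly-to-Renilla ratio is not deposited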. Scale: firefly reporter light: higher = more Wg reporter light, before normalisation; Renilla control light: higher = more transfected or surviving cells. Active means: 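a knock-down is a candidate when at least two out of four statistical tests show it departing from its plate mean; one test alone signals a weak candidate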. Meaning of the calls: active = candidate regulator (raises or lowers reporter); inactive = not a candidate.
In all, the deposit lists about 22,000 reagents; this is an unselected part of those that have a named target and a result. Over the whole deposit, 233 (1.1%) are marked active. 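Light values are raw, unnormalised plate reads; the ratio scores behind the reporter calls were not deposited.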 Names joined by + are all predicted targets of the reagent. No sequences are given here. Not stated in the record: the amount of reagent, the time to read-out, the dose of the treatment.

Gene,amplicon,"reporter change call, replicate 1","firefly reporter light, replicate 1","firefly reporter light, replicate 2","Renilla control light, replicate 1","Renilla control light, replicate 2",activity call
wde,DRSC05955,,14694,,3889,,inactive
Slik,DRSC04471,,5465,,1692,,inactive
CG13924,DRSC08393,,6091,,2251,,inactive
Nha2,DRSC14689,,17824,,14210,,inactive
Nha2,DRSC15619,,2212,4480,946,922,inactive
Nha2,DRSC15623,,22896,,21596,,inactive
CG15317,DRSC18005,,21584,,10443,,inactive
CG11357,DRSC08183,,965,4848,928,2954,inactive
GstE13,DRSC06083,,6763,,2632,,inactive
CG15370,DRSC18042,,18745,,5321,,inactive
CG32829,DRSC00961,,27025,,11749,,inactive
CG32829,DRSC22805,,3.46e5,3.88e5,1.26e5,1.58e5,inactive
S6KL,DRSC19349,,4764,9573,1812,4393,inactive
S6KL,DRSC21578,,8.09e5,8.61e5,3.48e5,3.42e5,inactive
ACXD,DRSC07843,,2221,,1376,,inactive
GABA-B-R1,DRSC22038,,3.67e5,3.67e5,1.91e5,1.84e5,inactive
CG8299,DRSC07139,,4424,,1731,,inactive
dgt3,DRSC04349,,7141,,1659,,inactive
CG18745,DRSC15382,,12171,,4186,,inactive
Taz,DRSC07704,,8267,,3772,,inactive
Taz,DRSC22625,,4.51e5,4.78e5,1.82e5,1.88e5,inactive
twit,DRSC03210,,8416,,5606,,inactive
CG9395,DRSC03218,,3757,8075,1942,3443,inactive
Nop56,DRSC14699,,2275,3913,743,1062,inactive
Wdr59,DRSC02771,,16496,,4731,,inactive
CG4570,DRSC15602,,15706,,2125,,inactive
kappaB-Ras + CG30503,DRSC06619,,2167,5057,663,1174,inactive
kappaB-Ras + CG30503,DRSC07636,,3364,7660,945,2557,inactive
CG7695,DRSC16289,,18919,,4009,,inactive
Usp20-33,DRSC07196,,12789,,2720,,inactive
Vps2,DRSC14886,,5511,12583,856,2000,inactive
Creld,DRSC00308,,2044,3680,940,1527,inactive
CG11286,DRSC14293,,13069,,4007,,inactive
HtrA2,DRSC16425,,11504,,2444,,inactive
ND-51L1,DRSC06072,,4587,,1881,,inactive
al,DRSC00799,,3840,10763,1426,4144,inactive
Jhbp5,DRSC14240,,12992,,3644,,inactive
Ogg1,DRSC17738,,3015,4304,935,1675,inactive
CG42710,DRSC01034,,16041,,8083,,inactive
CG31098,DRSC14259,,19904,,14100,,inactive
Arp2,DRSC19332,,17208,,7354,,inactive

Targets above whose gene name begins with S or s:
Gene,amplicon,"reporter change call, replicate 1","firefly reporter light, replicate 1","firefly reporter light, replicate 2","Renilla control light, replicate 1","Renilla control light, replicate 2",activity call
Slik,DRSC04471,,5465,,1692,,inactive
S6KL,DRSC19349,,4764,9573,1812,4393,inactive
S6KL,DRSC21578,,8.09e5,8.61e5,3.48e5,3.42e5,inactive

More records follow:
Gene,amplicon,"reporter change call, replicate 1","firefly reporter light, replicate 1","firefly reporter light, replicate 2","Renilla control light, replicate 1","Renilla control light, replicate 2",activity call
CG33630,DRSC14546,,14664,,3623,,inactive
Or65c,DRSC21312,,5.73e5,8.58e5,3.49e5,2.97e5,inactive
dop,DRSC10655,,2840,,1161,,inactive
CG13590,DRSC04226,,4519,8933,1457,4016,inactive
Cluap1,DRSC20637,,17366,6.57e5,11816,2.67e5,inactive
CG15764,DRSC18070,,18697,,7661,,inactive
nxf2,DRSC10403,,3350,,1464,,inactive
dysc,DRSC10273,,8411,,3651,,inactive
dysc,DRSC11040,,11226,,3687,,inactive
dysc,DRSC22334,,7.13e5,7.13e5,3.55e5,3.74e5,inactive
dysc,DRSC22437,,6.72e5,7.27e5,1.81e5,1.53e5,inactive
dysc,DRSC22824,,5.85e5,6.17e5,2.38e5,3.06e5,inactive
Cyp301a1,DRSC07365,,6937,,2812,,inactive
zda,DRSC06936,,26442,,6839,,inactive
CG32188,DRSC09510,,2263,,1074,,inactive
sphinx2,DRSC22188,,7.22e5,7.16e5,3.14e5,3.12e5,inactive
Cmtr1,DRSC18400,,15384,,7853,,inactive
CG6638,DRSC10680,,965,6016,864,3073,inactive
su(f),DRSC20907,,11261,,9235,,inactive
CG14190,DRSC19545,,22059,,9846,,inactive
CG42748,DRSC03712,,1706,7149,784,2098,inactive
CG42748,DRSC03713,,12088,,4029,,inactive
CG42748,DRSC03734,,2160,6091,886,1957,inactive
atms,DRSC12310,,8886,,1434,,inactive
TpnC73F,DRSC11307,,6946,,2613,,inactive
CG12824,DRSC06173,,3360,8563,672,4535,inactive
rdx,DRSC14526,,15220,,1171,,inactive
rdx,DRSC16580,,12080,,2029,,inactive
Pdi,DRSC11250,,4151,,2908,,inactive
zormin,DRSC07969,,3488,,1718,,inactive
zormin,DRSC08210,,5035,,2316,,inactive
zormin,DRSC08212,,3860,,2074,,inactive
zormin,DRSC08213,,5330,,2381,,inactive
zormin,DRSC08297,,4155,,2124,,inactive
zormin,DRSC08571,,19971,,2880,,inactive
zormin,DRSC22483,,8.34e5,7.19e5,4.19e5,5562,inactive
PTP-ER,DRSC04636,,8314,,2167,,inactive
CG18249,DRSC15318,,4865,,2128,,inactive
Hs3st-A,DRSC06507,Wg reporter activity raised,12737,,1181,,active
Hs3st-A,DRSC06508,,7943,,2012,,inactive
Hs3st-A,DRSC06509,,7954,,2113,,inactive
PpD3,DRSC16796,,9840,,3130,,inactive
CG16786,DRSC04281,,3514,6416,506,2440,inactive
Pp1alpha-96A,DRSC16795,,26080,,18729,,inactive
CG15385,DRSC00399,,2596,5837,1057,2912,inactive
CG8157,DRSC07085,,11880,,4653,,inactive
CG8157,DRSC21595,,9.47e5,8.39e5,4.65e5,4.15e5,inactive
papi,DRSC00693,,9288,,2714,,inactive
CG7530,DRSC16255,,10032,8.78e5,3355,2.78e5,inactive
beat-IIIa,DRSC01575,,21108,,9664,,inactive
beat-IIIa,DRSC01577,,22245,,8262,,inactive
beat-IIIa,DRSC02178,,3226,7813,1233,3991,inactive
